Measured values published in paper PMC11324738.
No constants are given. Whether binding was seen depends on the method and setting. Binding seen in cells or lysates may run through a third protein. A yes stands for co-enrichment or nearness to the bait. Other partners may have been found.

Amino acid sequences for entries named in this document (tags omitted).
UniProt Q13585: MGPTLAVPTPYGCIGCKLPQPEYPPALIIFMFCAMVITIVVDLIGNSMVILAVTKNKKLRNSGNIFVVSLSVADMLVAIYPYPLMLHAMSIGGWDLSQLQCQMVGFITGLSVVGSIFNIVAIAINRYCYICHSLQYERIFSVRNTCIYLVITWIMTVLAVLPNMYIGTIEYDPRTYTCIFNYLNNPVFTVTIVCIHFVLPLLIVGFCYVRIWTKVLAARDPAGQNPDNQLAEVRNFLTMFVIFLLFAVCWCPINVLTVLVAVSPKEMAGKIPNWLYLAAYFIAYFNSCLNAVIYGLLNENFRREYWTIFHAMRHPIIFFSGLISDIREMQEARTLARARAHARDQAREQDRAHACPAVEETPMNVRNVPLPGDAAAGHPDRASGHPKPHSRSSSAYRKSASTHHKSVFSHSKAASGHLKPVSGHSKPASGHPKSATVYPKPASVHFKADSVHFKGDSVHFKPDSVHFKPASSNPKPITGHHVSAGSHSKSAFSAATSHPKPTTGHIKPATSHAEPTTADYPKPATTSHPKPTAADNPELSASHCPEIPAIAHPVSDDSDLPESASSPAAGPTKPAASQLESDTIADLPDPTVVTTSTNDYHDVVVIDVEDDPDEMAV
UniProt P21796: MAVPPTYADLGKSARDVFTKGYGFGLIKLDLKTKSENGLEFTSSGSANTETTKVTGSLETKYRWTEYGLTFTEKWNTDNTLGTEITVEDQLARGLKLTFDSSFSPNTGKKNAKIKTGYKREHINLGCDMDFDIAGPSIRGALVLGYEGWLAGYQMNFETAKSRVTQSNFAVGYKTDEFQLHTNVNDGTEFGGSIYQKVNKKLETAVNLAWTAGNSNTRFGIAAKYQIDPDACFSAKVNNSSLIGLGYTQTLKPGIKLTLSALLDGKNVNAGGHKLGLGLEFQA
UniProt Q8IXI2: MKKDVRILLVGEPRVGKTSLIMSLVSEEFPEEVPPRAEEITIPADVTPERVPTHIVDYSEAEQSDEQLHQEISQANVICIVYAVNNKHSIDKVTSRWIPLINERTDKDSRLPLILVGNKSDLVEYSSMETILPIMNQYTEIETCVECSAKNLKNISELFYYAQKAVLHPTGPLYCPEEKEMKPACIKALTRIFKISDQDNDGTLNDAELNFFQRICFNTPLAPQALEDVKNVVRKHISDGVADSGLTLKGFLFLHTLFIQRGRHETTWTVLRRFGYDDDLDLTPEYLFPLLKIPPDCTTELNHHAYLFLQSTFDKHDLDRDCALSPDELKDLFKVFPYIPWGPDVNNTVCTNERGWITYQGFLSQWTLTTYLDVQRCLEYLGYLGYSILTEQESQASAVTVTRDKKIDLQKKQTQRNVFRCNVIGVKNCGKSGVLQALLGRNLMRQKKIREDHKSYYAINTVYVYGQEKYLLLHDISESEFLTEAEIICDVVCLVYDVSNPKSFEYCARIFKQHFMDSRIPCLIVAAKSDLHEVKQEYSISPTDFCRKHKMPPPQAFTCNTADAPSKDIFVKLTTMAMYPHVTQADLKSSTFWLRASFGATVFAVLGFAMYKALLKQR
UniProt Q14318: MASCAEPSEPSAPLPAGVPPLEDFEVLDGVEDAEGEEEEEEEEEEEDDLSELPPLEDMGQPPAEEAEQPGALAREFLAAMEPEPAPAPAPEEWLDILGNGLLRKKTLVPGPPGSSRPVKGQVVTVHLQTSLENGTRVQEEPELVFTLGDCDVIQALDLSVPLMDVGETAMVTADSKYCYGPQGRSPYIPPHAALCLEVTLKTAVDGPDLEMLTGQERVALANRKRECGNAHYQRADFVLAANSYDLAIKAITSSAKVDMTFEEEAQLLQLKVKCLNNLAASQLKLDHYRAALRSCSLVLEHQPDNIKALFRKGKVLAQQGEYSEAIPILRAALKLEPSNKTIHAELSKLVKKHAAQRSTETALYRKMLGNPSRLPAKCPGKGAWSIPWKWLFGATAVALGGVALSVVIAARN
UniProt Q7Z6Z7: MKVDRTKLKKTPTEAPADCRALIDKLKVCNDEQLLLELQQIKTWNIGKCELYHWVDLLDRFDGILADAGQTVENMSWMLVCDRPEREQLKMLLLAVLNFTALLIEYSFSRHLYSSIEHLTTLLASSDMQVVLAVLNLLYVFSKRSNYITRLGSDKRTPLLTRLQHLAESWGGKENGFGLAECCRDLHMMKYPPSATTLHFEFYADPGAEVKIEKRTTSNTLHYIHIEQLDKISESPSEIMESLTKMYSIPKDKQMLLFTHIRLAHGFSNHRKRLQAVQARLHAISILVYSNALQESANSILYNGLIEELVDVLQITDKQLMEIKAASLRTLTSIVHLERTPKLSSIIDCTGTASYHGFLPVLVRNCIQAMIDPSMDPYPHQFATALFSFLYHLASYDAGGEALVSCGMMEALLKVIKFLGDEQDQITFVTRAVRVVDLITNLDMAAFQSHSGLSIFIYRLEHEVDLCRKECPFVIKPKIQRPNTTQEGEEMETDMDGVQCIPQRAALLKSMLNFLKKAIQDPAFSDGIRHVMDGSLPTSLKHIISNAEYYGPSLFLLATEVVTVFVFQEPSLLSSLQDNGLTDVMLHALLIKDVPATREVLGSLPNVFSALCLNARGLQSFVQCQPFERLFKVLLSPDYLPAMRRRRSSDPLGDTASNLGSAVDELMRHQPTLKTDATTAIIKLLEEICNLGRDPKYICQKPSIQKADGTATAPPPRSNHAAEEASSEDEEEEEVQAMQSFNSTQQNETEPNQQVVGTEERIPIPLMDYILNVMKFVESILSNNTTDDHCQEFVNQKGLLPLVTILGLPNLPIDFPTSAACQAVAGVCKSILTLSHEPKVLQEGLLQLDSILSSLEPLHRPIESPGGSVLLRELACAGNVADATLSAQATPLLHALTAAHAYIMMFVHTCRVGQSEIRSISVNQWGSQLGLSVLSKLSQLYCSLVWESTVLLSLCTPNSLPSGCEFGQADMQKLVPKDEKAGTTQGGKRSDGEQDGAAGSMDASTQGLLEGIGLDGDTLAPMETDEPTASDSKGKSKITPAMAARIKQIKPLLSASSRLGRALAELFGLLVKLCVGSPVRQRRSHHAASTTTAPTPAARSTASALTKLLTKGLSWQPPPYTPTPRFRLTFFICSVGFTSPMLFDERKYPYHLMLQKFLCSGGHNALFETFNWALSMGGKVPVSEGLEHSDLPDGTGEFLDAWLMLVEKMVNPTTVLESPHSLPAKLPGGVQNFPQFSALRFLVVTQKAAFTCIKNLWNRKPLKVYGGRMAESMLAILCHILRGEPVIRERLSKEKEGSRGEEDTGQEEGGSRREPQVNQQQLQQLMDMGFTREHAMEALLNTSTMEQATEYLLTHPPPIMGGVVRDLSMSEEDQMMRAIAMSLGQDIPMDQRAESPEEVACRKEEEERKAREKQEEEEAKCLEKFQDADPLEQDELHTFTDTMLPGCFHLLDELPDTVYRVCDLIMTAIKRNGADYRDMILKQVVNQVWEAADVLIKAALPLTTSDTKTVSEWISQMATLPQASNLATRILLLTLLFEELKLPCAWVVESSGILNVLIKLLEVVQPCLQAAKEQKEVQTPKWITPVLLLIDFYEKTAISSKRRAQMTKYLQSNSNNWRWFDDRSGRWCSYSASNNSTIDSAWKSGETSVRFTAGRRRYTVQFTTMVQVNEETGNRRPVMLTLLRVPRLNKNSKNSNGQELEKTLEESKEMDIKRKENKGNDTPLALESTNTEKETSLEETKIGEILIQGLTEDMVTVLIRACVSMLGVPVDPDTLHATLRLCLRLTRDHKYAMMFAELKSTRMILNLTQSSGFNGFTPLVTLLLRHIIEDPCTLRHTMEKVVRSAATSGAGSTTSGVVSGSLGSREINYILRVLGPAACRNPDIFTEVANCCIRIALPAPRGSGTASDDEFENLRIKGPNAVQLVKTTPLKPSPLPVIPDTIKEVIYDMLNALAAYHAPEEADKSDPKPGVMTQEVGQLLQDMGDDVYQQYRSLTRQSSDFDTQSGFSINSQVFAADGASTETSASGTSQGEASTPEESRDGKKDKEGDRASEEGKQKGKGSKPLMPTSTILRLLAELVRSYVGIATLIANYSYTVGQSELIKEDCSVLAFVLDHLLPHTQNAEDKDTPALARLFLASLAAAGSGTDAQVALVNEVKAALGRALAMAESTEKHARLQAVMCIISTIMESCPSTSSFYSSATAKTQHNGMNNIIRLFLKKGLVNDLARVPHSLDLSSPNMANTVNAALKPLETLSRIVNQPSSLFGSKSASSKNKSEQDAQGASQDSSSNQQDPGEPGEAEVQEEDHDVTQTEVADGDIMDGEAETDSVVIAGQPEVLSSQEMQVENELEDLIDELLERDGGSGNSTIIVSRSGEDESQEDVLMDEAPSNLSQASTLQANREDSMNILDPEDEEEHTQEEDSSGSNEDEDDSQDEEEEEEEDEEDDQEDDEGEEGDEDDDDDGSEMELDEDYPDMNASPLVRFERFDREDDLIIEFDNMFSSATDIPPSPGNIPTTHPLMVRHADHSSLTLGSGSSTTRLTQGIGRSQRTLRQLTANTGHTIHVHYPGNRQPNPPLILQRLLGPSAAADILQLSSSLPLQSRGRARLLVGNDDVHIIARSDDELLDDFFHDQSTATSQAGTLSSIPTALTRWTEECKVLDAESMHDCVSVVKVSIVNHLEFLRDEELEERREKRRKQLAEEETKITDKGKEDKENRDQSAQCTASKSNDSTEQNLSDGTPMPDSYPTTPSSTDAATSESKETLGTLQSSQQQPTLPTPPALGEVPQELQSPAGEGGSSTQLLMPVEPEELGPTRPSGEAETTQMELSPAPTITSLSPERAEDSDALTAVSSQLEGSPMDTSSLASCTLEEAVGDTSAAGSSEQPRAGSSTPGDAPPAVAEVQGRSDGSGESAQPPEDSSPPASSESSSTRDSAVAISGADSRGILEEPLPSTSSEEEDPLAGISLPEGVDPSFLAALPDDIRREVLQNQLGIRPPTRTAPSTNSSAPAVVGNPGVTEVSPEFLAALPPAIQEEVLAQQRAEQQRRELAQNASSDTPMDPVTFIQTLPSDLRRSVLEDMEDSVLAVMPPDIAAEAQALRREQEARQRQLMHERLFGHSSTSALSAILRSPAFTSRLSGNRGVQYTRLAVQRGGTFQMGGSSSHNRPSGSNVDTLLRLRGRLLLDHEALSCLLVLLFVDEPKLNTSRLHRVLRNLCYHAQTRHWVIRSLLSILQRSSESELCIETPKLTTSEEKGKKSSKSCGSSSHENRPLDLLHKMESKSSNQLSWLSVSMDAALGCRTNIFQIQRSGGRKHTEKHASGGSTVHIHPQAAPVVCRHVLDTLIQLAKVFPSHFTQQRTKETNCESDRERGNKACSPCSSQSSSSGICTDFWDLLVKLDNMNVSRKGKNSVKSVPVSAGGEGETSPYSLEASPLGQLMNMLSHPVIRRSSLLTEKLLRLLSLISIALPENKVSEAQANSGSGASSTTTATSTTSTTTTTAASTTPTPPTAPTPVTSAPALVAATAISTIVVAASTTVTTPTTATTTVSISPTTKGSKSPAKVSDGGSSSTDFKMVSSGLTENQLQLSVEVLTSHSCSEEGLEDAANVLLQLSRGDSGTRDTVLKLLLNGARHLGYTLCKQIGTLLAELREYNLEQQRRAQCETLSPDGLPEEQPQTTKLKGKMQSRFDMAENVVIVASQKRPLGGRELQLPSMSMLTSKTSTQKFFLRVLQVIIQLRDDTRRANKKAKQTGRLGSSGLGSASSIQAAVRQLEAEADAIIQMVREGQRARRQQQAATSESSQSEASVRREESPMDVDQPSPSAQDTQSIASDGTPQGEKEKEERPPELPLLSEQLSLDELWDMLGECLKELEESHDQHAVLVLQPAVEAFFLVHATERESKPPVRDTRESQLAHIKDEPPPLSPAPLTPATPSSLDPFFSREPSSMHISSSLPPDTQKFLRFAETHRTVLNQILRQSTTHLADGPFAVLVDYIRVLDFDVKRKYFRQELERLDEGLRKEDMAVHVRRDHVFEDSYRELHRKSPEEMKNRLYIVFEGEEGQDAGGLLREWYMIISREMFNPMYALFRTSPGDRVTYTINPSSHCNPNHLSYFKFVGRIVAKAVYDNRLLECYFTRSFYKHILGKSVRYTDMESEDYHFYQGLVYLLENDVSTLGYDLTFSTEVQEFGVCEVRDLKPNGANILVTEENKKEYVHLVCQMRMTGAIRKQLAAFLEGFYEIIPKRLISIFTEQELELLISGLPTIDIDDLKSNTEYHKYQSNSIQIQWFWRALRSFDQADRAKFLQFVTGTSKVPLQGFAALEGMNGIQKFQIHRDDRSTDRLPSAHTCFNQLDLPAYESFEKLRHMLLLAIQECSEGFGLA
UniProt Q99497: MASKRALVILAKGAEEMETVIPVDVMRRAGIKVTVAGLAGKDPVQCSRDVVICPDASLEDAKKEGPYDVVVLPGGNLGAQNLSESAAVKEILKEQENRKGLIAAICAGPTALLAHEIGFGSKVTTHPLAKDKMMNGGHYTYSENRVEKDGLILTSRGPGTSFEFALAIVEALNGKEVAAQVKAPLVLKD

B1: HK2 (enzyme, UniProt P52789 1-917)
chain: MIASHLLAYFFTELNHDQVQKVDQYLYHMRLSDETLLEISKRFRKEMEKGLGATTHPTAAVKMLPTFVRSTPDGTEHGEFLALDLGGTNFRVLWVKVTDNGLQKVEMENQIYAIPEDIMRGSGTQLFDHIAECLANFMDKLQIKDKKLPLGFTFSFPCHQTKLDESFLVSWTKGFKSSGVEGRDVVALIRKAIQRRGDFDIDIVAVVNDTVGTMMTCGYDDHNCEIGLIVGTGSNACYMEEMRHIDMVEGDEGRMCINMEWGAFGDDGSLNDIRTEFDQEIDMGSLNPGKQLFEKMISGMYMGELVRLILVKMAKEELLFGGKLSPELLNTGRFETKDISDIEGEKDGIRKAREVLMRLGLDPTQEDCVATHRICQIVSTRSASLCAATLAAVLQRIKENKGEERLRSTIGVDGSVYKKHPHFAKRLHKTVRRLVPGCDVRFLRSEDGSGKGAAMVTAVAYRLADQHRARQKTLEHLQLSHDQLLEVKRRMKVEMERGLSKETHASAPVKMLPTYVCATPDGTEKGDFLALDLGGTNFRVLLVRVRNGKWGGVEMHNKIYAIPQEVMHGTGDELFDHIVQCIADFLEYMGMKGVSLPLGFTFSFPCQQNSLDESILLKWTKGFKASGCEGEDVVTLLKEAIHRREEFDLDVVAVVNDTVGTMMTCGFEDPHCEVGLIVGTGSNACYMEEMRNVELVEGEEGRMCVNMEWGAFGDNGCLDDFRTEFDVAVDELSLNPGKQRFEKMISGMYLGEIVRNILIDFTKRGLLFRGRISERLKTRGIFETKFLSQIESDCLALLQVRAILQHLGLESTCDDSIIVKEVCTVVARRAAQLCGAGMAAVVDRIRENRGLDALKVTVGVDGTLYKLHPHFAKVMHETVKDLAPKCDVSFLQSEDGSGKGAALITAVACRIREAGQR
B2: CERS1 (protein, UniProt P27544 1-350)
chain: MAAAGPAAGPTGPEPMPSYAQLVQRGWGSALAAARGCTDCGWGLARRGLAEHAHLAPPELLLLALGALGWTALRSAATARLFRPLAKRCCLQPRDAAKMPESAWKFLFYLGSWSYSAYLLFGTDYPFFHDPPSVFYDWTPGMAVPRDIAAAYLLQGSFYGHSIYATLYMDTWRKDSVVMLLHHVVTLILIVSSYAFRYHNVGILVLFLHDISDVQLEFTKLNIYFKSRGGSYHRLHALAADLGCLSFGFSWFWFRLYWFPLKVLYATSHCSLRTVPDIPFYFFFNALLLLLTLMNLYWFLYIVAFAAKVLTGQVHELKDLREYDTAEAQSLKPSKAEKPLRNGLVKDKRF

Target: GPR50-V1 and GPR50-V2 homodimer (GPR50 fused to the V1 or V2 segment of Venus, BiCAP bait) (human) (UniProt Q13585)
Assay: affinity purification with mass spectrometry; BiCAP: HEK 293T co-transfected with GPR50-V1 and GPR50-V2 for 30 h; RIPA lysate incubated with GFP-trap beads overnight at 4 °C; on-bead trypsin digest, LC-MS/MS

binding, binds:
VDAC1 (from UniProt P21796 1-283)
MARK2 (from UniProt Q7KZI7 1-788) (enzyme)
RHOT1 (from UniProt Q8IXI2 1-618)
FKBP8 (from UniProt Q14318 1-412)
HUWE1 (from UniProt Q7Z6Z7 1-4374) (enzyme)
VCP (from UniProt P55072 1-806)
PARK7 (from UniProt Q99497 1-189)
SQSTM1 (from UniProt Q13501 1-440)
AMFR (from UniProt Q9UKV5 1-643) (enzyme)
B1
B2
